For two substances, binding results are on record in publication doi:10.1101/2024.06.14.598964.

Sequences of proteins named here, by UniProt entry; tags and fusion partners are left off. A change or cut given only in a name is not applied to a line headed by its entry.
UniProt Q9UHY1: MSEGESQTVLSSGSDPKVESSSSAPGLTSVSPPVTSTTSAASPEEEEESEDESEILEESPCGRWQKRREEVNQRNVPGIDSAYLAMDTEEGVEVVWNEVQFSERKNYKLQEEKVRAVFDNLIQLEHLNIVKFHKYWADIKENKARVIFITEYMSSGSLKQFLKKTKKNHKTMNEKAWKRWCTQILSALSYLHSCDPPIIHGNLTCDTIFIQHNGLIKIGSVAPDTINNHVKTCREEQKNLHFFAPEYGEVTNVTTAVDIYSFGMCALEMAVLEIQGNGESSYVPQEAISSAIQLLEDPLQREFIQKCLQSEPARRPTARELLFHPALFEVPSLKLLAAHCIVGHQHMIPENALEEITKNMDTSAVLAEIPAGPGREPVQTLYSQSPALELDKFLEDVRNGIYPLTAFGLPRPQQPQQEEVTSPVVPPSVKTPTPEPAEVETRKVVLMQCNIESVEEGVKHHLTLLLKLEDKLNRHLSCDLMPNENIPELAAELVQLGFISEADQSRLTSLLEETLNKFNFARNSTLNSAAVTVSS
UniProt Q9NSY0: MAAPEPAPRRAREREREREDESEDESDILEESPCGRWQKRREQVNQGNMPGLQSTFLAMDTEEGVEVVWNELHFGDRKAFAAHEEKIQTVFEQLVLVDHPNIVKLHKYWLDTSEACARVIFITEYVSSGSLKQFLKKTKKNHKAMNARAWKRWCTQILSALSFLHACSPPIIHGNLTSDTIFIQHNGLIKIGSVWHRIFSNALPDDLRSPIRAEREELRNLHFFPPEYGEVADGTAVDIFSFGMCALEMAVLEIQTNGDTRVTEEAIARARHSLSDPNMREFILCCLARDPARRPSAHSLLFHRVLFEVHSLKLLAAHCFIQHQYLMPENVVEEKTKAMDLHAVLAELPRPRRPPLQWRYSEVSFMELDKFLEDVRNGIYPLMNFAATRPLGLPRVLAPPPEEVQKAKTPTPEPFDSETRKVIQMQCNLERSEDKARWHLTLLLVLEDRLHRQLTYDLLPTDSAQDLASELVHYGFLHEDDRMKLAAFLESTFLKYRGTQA

Results are given in words; binding and its absence hold for the method and conditions named. Binding seen in cells or lysates may run through a third protein. A result given as binding can be weak or reduced; the word gives no strength.

The test concerns the target NRBP1-Flag (full-length NRBP1) expressed in HEK293T cells (human) (UniProt Q9UHY1). Briefly: co-IP.

Turning to “NRBP2-dDimer-myc (NRBP2 lacking the dimerization region) (from UniProt Q9NSY0)”, the binding entry is on record as “binds”. For “NRBP2-dNRB-myc (NRBP2 lacking the NRB motif) (from UniProt Q9NSY0)” the value was “binds”.
